Results as given in publication doi:10.1101/2023.05.30.542845.
Results are given in words; binding and its absence hold for the method and conditions named. In cells and extracts the contact can be indirect. Binding calls can cover weak binding; strength is not graded here.

Target: Myeloperoxidase (human)
Assay: co-IP

B1: ILF3 (protein, UniProt Q12906 1-894)
chain: MRPMRIFVNDDRHVMAKHSSVYPTQEELEAVQNMVSHTERALKAVSDWIDEQEKGSSEQAESDNMDVPPEDDSKEGAGEQKTEHMTRTLRGVMRVGLVAKGLLLKGDLDLELVLLCKEKPTTALLDKVADNLAIQLAAVTEDKYEILQSVDDAAIVIKNTKEPPLSLTIHLTSPVVREEMEKVLAGETLSVNDPPDVLDRQKCLAALASLRHAKWFQARANGLKSCVIVIRVLRDLCTRVPTWGPLRGWPLELLCEKSIGTANRPMGAGEALRRVLECLASGIVMPDGSGIYDPCEKEATDAIGHLDRQQREDITQSAQHALRLAAFGQLHKVLGMDPLPSKMPKKPKNENPVDYTVQIPPSTTYAITPMKRPMEEDGEEKSPSKKKKKIQKKEEKAEPPQAMNALMRLNQLKPGLQYKLVSQTGPVHAPIFTMSVEVDGNSFEASGPSKKTAKLHVAVKVLQDMGLPTGAEGRDSSKGEDSAEETEAKPAVVAPAPVVEAVSTPSAAFPSDATAEQGPILTKHGKNPVMELNEKRRGLKYELISETGGSHDKRFVMEVEVDGQKFQGAGSNKKVAKAYAALAALEKLFPDTPLALDANKKKRAPVPVRGGPKFAAKPHNPGFGMGGPMHNEVPPPPNLRGRGRGGSIRGRGRGRGFGGANHGGYMNAGAGYGSYGYGGNSATAGYSQFYSNGGHSGNASGGGGGGGGGSSGYGSYYQGDNYNSPVPPKHAGKKQPHGGQQKPSYGSGYQSHQGQQQSYNQSPYSNYGPPQGKQKGYNHGQGSYSYSNSYNSPGGGGGSDYNYESKFNYSGSGGRSGGNSYGSGGASYNPGSHGGYGGGSGGGSSYQGKQGGYSQSNYNSPGSGQNYSGPPSSYQSSQGGYGRNADHSMNYQYR
binding: binds
